Experimental data: PubChem BioAssay AID1259425 (University of Nebraska Medical Center, 2018)
This is an unselected part of about 14,000 reagents tested. Some reagents were tested in more than one well and are listed for each. Further read-outs or replicates are left out here. Not given: the time to read-out.

Aim: 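Find knockdowns that reproduce the gene expression pattern seen when KSR1 is lost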 (primary screen)
Cell system: HCT116 human colon cancer cells
Knock-down reagent: siRNA pool against human genes, 50 nM siRNA
Measured: 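After 50 nM siRNA pool, branched-DNA assay measures six marker transcripts per well, minus blank, normalised to the geometric mean of two housekeeping transcripts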
Direction: BNIP3L mRNA: higher = more BNIP3L transcript after knockdown; NDRG1 mRNA: higher = more NDRG1 transcript after knockdown; BNIP3 mRNA: higher = more BNIP3 transcript after knockdown

no.	gene	BNIP3L mRNA, set 1	NDRG1 mRNA, set 1	BNIP3 mRNA, set 1
1	SLC45A2	0.104	0.186	0.357
2	NDEL1	0.116	0.128	0.31
3	TFDP3	0.0759	0.12	0.266
4	WDR24	0.204	0.221	0.219
5	CLEC7A	0.118	0.145	0.214
6	ARHGEF17	0.108	0.273	0.225
7	RFFL	0.0979	0.23	0.224
8	AKAP8L	0.0866	0.0777	0.443
9	AKAP8L	0.0849	0.163	0.358
10	ZNF280D	0.675	2.49	3.85
11	PCDHGA1	0.0914	0.239	0.399
12	WDFY3	0.116	0.196	0.228
13	LIPC	0.0936	0.152	0.184
14	DHX32	0.134	0.147	0.32
15	EFNB3	0.218	0.178	0.243
16	CTSL	0.0388	0.0695	0.251
17	FDPS	0.105	0.186	0.357
18	ACOXL	0.13	0.258	0.541
19	PDE4A	0.0803	0.329	0.213
20	DYNC1I2	0.105	2.2	0.249

6 entries from above, reformatted.
RFFL → BNIP3L mRNA, set 1 = 0.0979; NDRG1 mRNA, set 1 = 0.23; BNIP3 mRNA, set 1 = 0.224
AKAP8L → BNIP3L mRNA, set 1 = 0.0866; NDRG1 mRNA, set 1 = 0.0777; BNIP3 mRNA, set 1 = 0.443
AKAP8L → BNIP3L mRNA, set 1 = 0.0849; NDRG1 mRNA, set 1 = 0.163; BNIP3 mRNA, set 1 = 0.358
ZNF280D → BNIP3L mRNA, set 1 = 0.675; NDRG1 mRNA, set 1 = 2.49; BNIP3 mRNA, set 1 = 3.85
PCDHGA1 → BNIP3L mRNA, set 1 = 0.0914; NDRG1 mRNA, set 1 = 0.239; BNIP3 mRNA, set 1 = 0.399
WDFY3 → BNIP3L mRNA, set 1 = 0.116; NDRG1 mRNA, set 1 = 0.196; BNIP3 mRNA, set 1 = 0.228

Additional records:
no.	gene	BNIP3L mRNA, set 1	NDRG1 mRNA, set 1	BNIP3 mRNA, set 1
21	GLG1	0.0641	0.113	0.267
22	MLF2	0.0509	0.0672	0.258
23	BNIP2	0.152	0.265	0.258
24	USP49	0.116	0.46	0.354
25	STAT4	0.0825	0.104	0.227
26	FANCL	0.126	0.103	0.786
27	TMEM243	0.182	0.237	0.377
28	BAIAP2L1	0.0927	0.149	0.278
29	SNRPA1	0.144	0.527	0.176
30	SPRR2B	0.138	0.357	0.346
31	ANXA1	0.0592	0.112	0.205
32	RNASE6	0.0737	0.251	0.24
33	CCL17	0.501	0.686	0.382
34	PRDM6	0.116	0.125	0.179
35	ABCB6	0.142	0.606	0.324
36	USB1	0.0622	1.14	0.711
37	GON4L	0.083	0.311	0.345
38	GNAZ	0.106	0.0869	0.382
39	SERPINF2	0.039	0.179	0.338
40	IDH3G	0.0992	0.0665	0.33
41	MIXL1	0.118	0.229	0.395
42	F2R	0.352	0.305	0.757
43	TXNDC17	0.0761	0.21	0.192
44	ADAM15	0.102	0.268	0.28
45	IFNA13	0.116	0.172	0.169
46	PRPS1	0.172	0.36	0.383
47	RAB6A	0.0632	0.147	0.247
48	ARHGAP10	0.17	0.0979	0.268
49	AMH	0.11	0.127	0.395
50	CALM2	0.279	0.088	0.288
